Record: PubChem BioAssay AID1259260 (Sanger Institute, 2017)
Aim: 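Kinases whose knock-down kills colorectal cancer cells or boosts drug effects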 (primary screen). Cells: human NCI-H716 colorectal cancer cells. Reagent: siRNA pool against human genes. Conditions: anchor drugs BYL719 (alpelisib) 1 µM, cetuximab 5 µg/ml or trametinib 10 nM, each at a dose chosen to harm viability only mildly; DMSO vehicle for the knock-down-alone arm. Detection: 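Replicate-averaged viability relative to a non-targeting pool, a robust z-score for knock-down alone, and a synergy score per anchor drug versus each agent alone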. Direction: viability robust z-score, siRNA alone: higher = more surviving cells; below -3 called essential; viability vs control, no drug: higher = more surviving cells; synergy score with BYL719 and synergy score with cetuximab and synergy score with trametinib: higher = stronger synergy (synthetic lethality) with drug. Call rule: 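Essential when the robust z-score for knock-down alone falls below -3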. Meaning of the calls: active = essential (knock-down alone lowers viability); inactive = no essential effect.
Here is one part, drawn at random, of 794 deposited reagents. 13 of them (1.6%) count as active. 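Calls reflect only knock-down without drug; synergy above 0.15 was grouped apart and does not change the call.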 Viability is capped at 1. Reagent sequences are not shown. Not given: the amount of reagent, the time to read-out.

viability robust z-score, siRNA alone	viability vs control, no drug (fraction of control)	synergy score with BYL719	synergy score with cetuximab	synergy score with trametinib	Outcome	target gene
0.424	0.981	0.199	0.0932	0.0835	inactive	PI4KB
-2.29	0.7	-0.0119	0.118	0.0608	inactive	IRAK3
0.602	1	-0.132	0.0597	0.0539	inactive	PIP5KL1
-4.31	0.489	-0.0552	-0.0677	0.0121	active	FGFR2
0.602	1	-0.109	0.00423	0.279	inactive	BMPR2
0.602	1	-0.0805	0.0495	0.13	inactive	AKT2
0.602	1	-0.15	-0.1	-0.139	inactive	CDK13
0.602	1	-0.00613	-0.1	-0.0686	inactive	MAP3K13
0.0335	0.941	-0.0463	-0.112	0.115	inactive	DLG4
-2.24	0.705	-0.0956	-0.244	-0.109	inactive	CKB
0.0301	0.941	0.0732	0.0279	0.0876	inactive	SHPK
0.602	1	-0.0919	-0.0803	0.00347	inactive	HIPK4
-0.178	0.919	-0.179	0.0612	0.00838	inactive	PRKAG1
0.602	1	-0.0688	-0.1	-0.00468	inactive	KMT2B
0.602	1	-0.282	-0.1	-0.28	inactive	LIMK2
0.146	0.953	-0.132	-0.0264	0.000587	inactive	BLK
0.538	0.993	0.0627	-0.106	0.192	inactive	SMC1A
-2.3	0.699	-0.0379	0.0186	0.0697	inactive	DGKB
0.602	1	-0.0909	0.119	0.156	inactive	SIK3
0.602	1	-0.283	-0.1	-0.122	inactive	NME5
0.602	1	-0.15	-0.1	-0.0449	inactive	IP6K2
-0.569	0.878	-0.0942	-0.159	-0.0169	inactive	DYRK4
0.351	0.974	-0.155	-0.116	-0.124	inactive	ROCK1
-1.68	0.763	-0.288	-0.313	0.0395	inactive	CKM
0.124	0.95	-0.0129	-0.145	0.21	inactive	ACVR1B
0.602	1	-0.0718	-0.1	0.0331	inactive	STK4
0.602	1	0.0321	-0.0354	0.121	inactive	GK
0.602	1	-0.121	-0.1	0.0539	inactive	PRKACA
0.602	1	-0.283	-0.1	0.14	inactive	PI4K2A
0.602	1	-0.283	-0.1	0.0294	inactive	MARK1
-0.869	0.847	-0.0425	0.0683	0.212	inactive	MAPK4
0.602	1	-0.0794	-0.1	-0.0104	inactive	TP53RK
0.602	1	0.161	0.0451	0.17	inactive	GRK7
-2.36	0.692	-0.261	-0.242	0.0921	inactive	CDK10
